Measurements from PubChem BioAssay AID651900 (Broad Institute, 2012).
This is one part of the list. Shown are side measurements of this screen, not its main read-out; they come without a call.

assay: NIH3T3 cell viability loss – plate reader, cherry-pick, two tests, cytotoxicity control, dose response (AID 651900); details: test 2 concentration series, at 26 µM

SMILES | activity [%]
CC(=O)c1ccc(C(=O)N2CCCC(CCC(=O)N(C)CCc3ccccn3)C2)s1 (centres undefined) | -9.73
O=C(CSc1nncs1)N1c2ccccc2Sc2ccccc21 | -2.67
CCOC(=O)c1c(N)sc(C(N)=O)c1C | -0.1
COc1cc(C(=O)N2Cc3cc4ccccc4nc3C2C)cc(OC)c1OC (centres undefined) | 7.18
CC(=O)c1ccc(NC(=O)CN2CCN(c3ccccc3)CC2)cc1 | -2.98
Cn1nnc2cc(C(=O)N3CCC(c4ccccc4)C3)ccc21 (centres undefined) | -8.37
Cc1cc(C)n(-c2ccc(C(=O)Nc3ccc4c(c3)OCO4)cc2)n1 | 3.07
COc1ccc(NC(=O)c2cnc(C)cn2)cc1-n1cnnn1 | 7.84
Cc1cc(C)n2nc(C(=O)Nc3cccnc3)nc2n1 | 3.28
CCc1nn(CCCC(=O)N(C)Cc2ccccc2)c(=O)c2cc3occc3n12 | -13.4
Cc1ccc(-c2nn(CCC(=O)Nc3cccnc3)c(=O)c3ccccc23)cc1 | -5.79
Cc1ccc(-n2ncc3c2CC(C)(C)CC3NC(=O)CCc2cccnc2)cc1 (centres undefined) | 7.37
CC(CNC(=O)CCCn1ncn2c(cc3occc32)c1=O)c1ccccc1 (centres undefined) | -5.23
CCN(CC)S(=O)(=O)c1ccc(NC(=O)c2ccc(Cl)nc2)cc1 | -9.18
CCOc1ccc(CCNC(=O)c2cnc(C)cn2)cc1OCC | 5.77
CCOc1ccc(-n2c(SCC(N)=O)nc3c(c2=O)SCC3)cc1 | 6.74
COc1ccc(Cn2ccc(=O)c(Cc3c(Cl)cccc3Cl)c2C)cc1 | -9.55

SMILES | activity [%]
CCOC(=O)c1ccc(N2C(=O)c3n[nH]c(C)c3C2c2ccc(OC)c(OC)c2)cc1 (centres undefined) | 0.626
CN1CCCC1CCOC(C)(c1ccccc1)c1ccc(Cl)cc1 (centres undefined) | -31.8
Cc1cc(C(=O)CSc2nncs2)c(C)n1-c1ccc2c(c1)OCO2 | -5.76
COc1ccccc1-c1cc(C(F)(F)F)nc(S(=O)(=O)CCCC(=O)O)n1 | -8.12
Cc1cccc(-c2ccc3c(c2)C2CC3CCN2)c1 (centres undefined) | -8.38
O=C(Nc1cccnc1)c1cc2nc(C3CC3)cc(C(F)(F)F)n2n1 | -0.235
O=C(Nc1ccccc1)N1CCN(Cc2ccc3c(c2)OCO3)CC1 | -3.08
O=C(CN1C(=O)/C(=C/c2cccc(Br)c2)SC1=S)Nc1cccnc1 | 0.045
COC(=O)c1c(C(=O)OC)c(-c2ccccc2)n2c1CS(=O)C2 (centres undefined) | 6.11
CN(Cc1ccccc1)C(=O)CCS(=O)(=O)c1ccc2c(c1)NC(=O)CS2 | 8.48
Cc1ccc(NCc2nnc(SCC(=O)N3CCc4ccccc43)n2C)cc1 | -9.53
CCCCN1C(=O)c2ccc(C(=O)Nc3cccnc3)cc2C1=O | -1.08
O=C1CCCc2c1cc(C(=O)NCc1ccco1)c(=O)n2-c1ccc(Cl)cc1 | 1.95
COC(=O)c1sc(N)c(C(=O)OC)c1CSc1nnc(-c2ccccc2Cl)n1C | -7.6
Cc1ccc(Cc2c(C)nc3nc(SCC(=O)NCc4ccco4)nn3c2C)cc1 | 0.407
CCc1nn(CC(=O)N2CCN(Cc3ccc4c(c3)OCO4)CC2)c(=O)c2cc3occc3n12 | -7.6
COC(=O)c1c(C(=O)OC)c(-c2cccc(F)c2)n2c1CS(=O)C2 (centres undefined) | 8.17

For reference, part of the list above.
SMILES | activity [%]
Cc1cc(C(=O)CSc2nncs2)c(C)n1-c1ccc2c(c1)OCO2 | -5.76
COc1ccccc1-c1cc(C(F)(F)F)nc(S(=O)(=O)CCCC(=O)O)n1 | -8.12
